Structures can show the parent of a compound that is named as a salt. Some of these results come from one statement about several compounds together.
target: recombinant human PLA2-VIIB (Homo sapiens, UniProt Q99487); assay: (2b) Alternative PLA2 VIIB assay (2-thio-PAF substrate); format: biochemical; conditions: Examples 266-412 were tested here

Selectivity between human recombinant Lp-PLA2 and PLA2 VIIB, at least 100 fold:
CN(C)CC(=O)N1CCN2c3cc(OCc4ccc(F)c(F)c4)nc(=O)n3CC2C1 (stereo not drawn) [Example E346, 7-((3,4-Difluorobenzyl)oxy)-2-(2-(dimethylamino)acetyl)-3,4,11,11a-tetrahydro-1H-pyrazino[1,2′:3,4]imidazo[1,2-c]pyrimidin-9(2H)-one]
NC1(C(=O)N2CCN3c4cc(OCc5ccc(F)c(F)c5)nc(=O)n4CC3C2)CCCCC1 (stereo not drawn) [Example E347, 2-(1-Aminocyclohexanecarbonyl)-7-((3,4-difluorobenzyl)oxy)-3,4,11,11a-tetrahydro-1H-pyrazino[1,2′:3,4]imidazo[1,2-c]pyrimidin-9(2H)-one]
O=C1CN2c3cc(OCc4cccc(F)c4F)nc(=O)n3CC2CN1 (stereo not drawn) [Example E348, 7-((2,3-Difluorobenzyl)oxy)-11,11a-dihydro-1H-pyrazino[1′,2′:3,4]imidazo[1,2-c]pyrimidine-3,9(2H,4H)-dione]
N#Cc1cc(COc2cc3n(c(=O)n2)CC2CNC(=O)CN32)ccc1F (stereo not drawn) [Example E349, 5-(((3,9-Dioxo-2,3,4,9,11,11a-hexahydro-1H-pyrazino[1′,2′:3,4]imidazo[1,2-c]pyrimidin-7-yl)oxy)methyl)-2-fluorobenzonitrile]
N#Cc1cc(COc2ccc(COc3cc4n(c(=O)n3)CC3CNC(=O)CN43)cc2C#N)ccc1F (stereo not drawn) [Example E350, 5-((2-cyano-4-(((3,9-dioxo-2,3,4,9,11,11a-hexahydro-1H-pyrazino[1′,2′:3,4]imidazo[1,2-c]pyrimidin-7-yl)oxy)methyl)phenoxy)methyl)-2-fluorobenzonitrile]
O=C1CN2c3cc(OCc4cc(F)c(Oc5ccnc(C(F)(F)F)c5)c(F)c4)nc(=O)n3CC2CN1 (stereo not drawn) [Example E351, 7-((3,5-Difluoro-4-((2-(trifluoromethyl)pyridin-4-yl)oxy)benzyl)oxy)-11,11a-dihydro-1H-pyrazino[1′,2′:3,4]imidazo[1,2-c]pyrimidine-3,9(2H,4H)-dione]
O=C1CN2c3cc(OCc4cc(F)c(Oc5cncc(C(F)(F)F)c5)c(F)c4)nc(=O)n3CC2CN1 (stereo not drawn) [Example E352, 7-((3,5-Difluoro-4-((5-(trifluoromethyl)pyridin-3-yl)oxy)benzyl)oxy)-11,11a-dihydro-1H-pyrazino[1,2′:3,4]imidazo[1,2-c]pyrimidine-3,9(2H,4H)-dione]
O=C1CN2c3cc(OCc4ccc(F)c(F)c4)nc(=O)n3CC2CN1 (stereo not drawn) [Example E356, 7-((3,4-difluorobenzyl)oxy)-11,11a-dihydro-1H-pyrazino[1′,2′:3,4]imidazo[1,2-c]pyrimidine-3,9(2H,4H)-dione]
CN1CC2Cn3c(cc(OCc4ccc(F)c(C#N)c4)nc3=O)N2CC1=O (stereo not drawn) [Example E357, 2-Fluoro-5-(((2-methyl-3,9-dioxo-2,3,4,9,11,11a-hexahydro-1H-pyrazino[1,2′:3,4]imidazo[1,2-c]pyrimidin-7-yl)oxy)methyl)benzonitrile]
O=C1CN2c3cc(OCc4ccc(F)c(F)c4)nc(=O)n3CC2CN1CC(F)(F)F (stereo not drawn) [Example E358, 7-((3,4-Difluorobenzyl)oxy)-2-(2,2,2-trifluoroethyl)-11,11a-dihydro-1Hpyrazino[1′,2′:3,4] imidazo[1,2-c]pyrimidine-3,9(2H,4H)-dione]
CN1CC2Cn3c(cc(OCc4ccc(F)c(F)c4)nc3=O)N2CC1=O (stereo not drawn) [Example E359, 7-((3,4-Difluorobenzyl)oxy)-2-methyl-11,11a-dihydro-1H-pyrazino[1,2′:3,4]imidazo[1,2-c]pyrimidine-3,9(2H,4H)-dione]
Cc1ccc(Oc2c(F)cc(COc3cc4n(c(=O)n3)CC3CN(C)C(=O)CN43)cc2F)cn1 (stereo not drawn) [Example E360, 7-((3,5-difluoro-4-((6-methylpyridin-3-yl)oxy)benzyl)oxy)-2-methyl-11,11a-dihydro-1H-pyrazino[1′,2′:3,4]imidazo[1,2-c]pyrimidine-3,9(2H,4H)-dione, trifluoroacetic acid salt]
O=c1nc(OCc2cccc(F)c2F)cc2n1CC1CSCCN21 (stereo not drawn) [Example E361, 7-((2,3-Difluorobenzyl)oxy)-3,4,11,11a-tetrahydropyrimido[6′,1′:2,3]imidazo[5,1-c][1,4] thiazin-9(1H)-one]
N#Cc1cc(COc2cc3n(c(=O)n2)CC2CSCCN32)ccc1F (stereo not drawn) [Example E364, 2-Fluoro-5-(((9-oxo-1,3,4,9,11,11a-hexahydropyrimido[6′,1′:2,3]imidazo[5,1-c][1,4]thiazin-7-yl)oxy)methyl)benzonitrile]
N#Cc1cc(COc2cc3n(c(=O)n2)CC2C[S+]([O-])CCN32)ccc1F (stereo not drawn) [Example E366, 2-Fluoro-5-(((2-oxido-9-oxo-1,3,4,9,11,11a-hexahydropyrimido[6′,1′:2,3]imidazo[5,1-c][1,4]thiazin-7-yl)oxy)methyl)benzonitrile]
N#Cc1cc(COc2cc3n(c(=O)n2)CC2CS(=O)(=O)CCN32)ccc1F (stereo not drawn) [Example E367, 5-(((2,2-Dioxido-9-oxo-1,3,4,9,11,11a-hexahydropyrimido[6′,1′:2,3]imidazo[5,1-c][1,4]thiazin-7-yl)oxy)methyl)-2-fluorobenzonitrile]
O=c1nc(OCc2cc(F)c(Oc3ccnc(C(F)(F)F)c3)c(F)c2)cc2n1CC1CSCCN21 (stereo not drawn) [Example E368, 7-((3,5-Difluoro-4-((2-(trifluoromethyl)pyridin-4-yl)oxy)benzyl)oxy) 3,4,11,11a-tetrahydropyrimido[6′,1′:2,3]imidazo[5,1-c][1,4]thiazin-9(1H)-one]
O=c1nc(OCc2cc(F)c(Oc3ccnc(C(F)(F)F)c3)c(F)c2)cc2n1CC1C[S+]([O-])CCN21 (stereo not drawn) [Example E369, 7-((3,5-Difluoro-4-((2-(trifluoromethyl)pyridin-4-yl)oxy)benzyl)oxy)-3,4,11,11a-tetrahydropyrimido[6′,1′:2,3]imidazo[5,1-c][1,4]thiazin-9(1H)-one 2-oxide]
O=c1nc(OCc2cc(F)c(Oc3ccnc(C(F)(F)F)c3)c(F)c2)cc2n1CC1CS(=O)(=O)CCN21 (stereo not drawn) [Example E370, 7-((3,5-Difluoro-4-((2-(trifluoromethyl)pyridin-4-yl)oxy)benzyl)oxy)-3,4,11,11a-tetrahydropyrimido[6′,1′:2,3]imidazo[5,1-c][1,4]thiazin-9(1H)-one-2,2-dioxide]
O=c1nc(OCc2cc(F)c(Oc3cncc(C(F)(F)F)c3)c(F)c2)cc2n1CC1CSCCN21 (stereo not drawn) [Example E371, 7-((3,5-Difluoro-4-((5-(trifluoromethyl)pyridin-3-yl)oxy)benzyl)oxy)-3,4,11,11a-tetrahydropyrimido[6′,1′:2,3]imidazo[5,1-c][1,4]thiazin-9(1H)-one]
O=c1nc(OCc2cc(F)c(Oc3cncc(C(F)(F)F)c3)c(F)c2)cc2n1CC1C[S+]([O-])CCN21 (stereo not drawn) [Example E372, 7-((3,5-Difluoro-4-((5-(trifluoromethyl)pyridin-3-yl)oxy)benzyl)oxy)-3,4,11,11a-tetrahydropyrimido[6′,1′:2,3]imidazo[5,1-c][1,4]thiazin-9(1H)-one 2-oxide]
O=c1nc(OCc2cc(F)c(Oc3cncc(C(F)(F)F)c3)c(F)c2)cc2n1CC1CS(=O)(=O)CCN21 (stereo not drawn) [Example E373, 7-((3,5-Difluoro-4-((5-(trifluoromethyl)pyridin-3-yl)oxy)benzyl)oxy)-3,4,11,11a-tetrahydropyrimido[6′,1′:2,3]imidazo[5,1-c][1,4]thiazin-9(1H)-one 2,2-dioxide]
N#Cc1cc(COc2cc3n(c(=O)n2)C[C@@H]2C[C@H](O)CN32)ccc1F [Example E382, 2-Fluoro-5-((((7S,8aS)-7-hydroxy-1-oxo-1,6,7,8,8a,9-hexahydropyrrolo[1′,2′:3,4]imidazo[1,2-c]pyrimidin-3-yl)oxy)methyl)benzonitrile]
O=c1nc(OCc2cc(F)c(Oc3ccnc(C(F)(F)F)c3)c(F)c2)cc2n1C[C@@H]1C[C@H](O)CN21 [Example E383, (7S,8aS)-3-((3,5-Difluoro-4-((2-(trifluoromethyl)pyridin-4-yl)oxy)benzyl)oxy)-7-hydroxy-7,8,8a,9-tetrahydropyrrolo[1′,2′:3,4]imidazo[1,2-c]pyrimidin-1(6H)-one]
O=c1nc(OCc2cc(F)c(Oc3ccnc(C(F)(F)F)c3)c(F)c2)cc2n1C[C@H]1C[C@@H](O)CN21 [Example E384, (7R,8aR)-3-((3,5-Difluoro-4-((2-(trifluoromethyl)pyridin-4-yl)oxy)benzyl)oxy)-7-hydroxy-7,8,8a,9-tetrahydropyrrolo[1′,2′:3,4]imidazo[1,2-c]pyrimidin-1(6H)-one]
Cc1ccc(Oc2c(F)cc(COc3cc4n(c(=O)n3)C[C@@H]3C[C@H](O)CN43)cc2F)cn1 [Example E385, (7S,8aS)-3-((3,5-Difluoro-4-((6-methylpyridin-3-yl)oxy)benzyl)oxy)-7-hydroxy-7,8,8a,9-tetrahydropyrrolo[1′,2′:3,4]imidazo[1,2-c]pyrimidin-1(6H)-one]
N#Cc1cc(COc2cc3n(c(=O)n2)C[C@H]2C[C@H](N)CN32)ccc1F [Example E386, 5-((((7S,8aR)-7-Amino-1-oxo-1,6,7,8,8a,9-hexahydropyrrolo[1,2′:3,4]imidazo[1,2-c]pyrimidin-3-yl)oxy)methyl)-2-fluorobenzonitrile]
